Source: article PMC2829546
No constants are given. Whether binding was seen depends on the method and setting. In cells and extracts the contact can be indirect. Binding can be weak; no strength is given.

Chains of the proteins cited; added tags and fusions are not shown. Lines headed by an entry give the natural chain unless they say otherwise; changes in a name come on top.
UniProt P23385: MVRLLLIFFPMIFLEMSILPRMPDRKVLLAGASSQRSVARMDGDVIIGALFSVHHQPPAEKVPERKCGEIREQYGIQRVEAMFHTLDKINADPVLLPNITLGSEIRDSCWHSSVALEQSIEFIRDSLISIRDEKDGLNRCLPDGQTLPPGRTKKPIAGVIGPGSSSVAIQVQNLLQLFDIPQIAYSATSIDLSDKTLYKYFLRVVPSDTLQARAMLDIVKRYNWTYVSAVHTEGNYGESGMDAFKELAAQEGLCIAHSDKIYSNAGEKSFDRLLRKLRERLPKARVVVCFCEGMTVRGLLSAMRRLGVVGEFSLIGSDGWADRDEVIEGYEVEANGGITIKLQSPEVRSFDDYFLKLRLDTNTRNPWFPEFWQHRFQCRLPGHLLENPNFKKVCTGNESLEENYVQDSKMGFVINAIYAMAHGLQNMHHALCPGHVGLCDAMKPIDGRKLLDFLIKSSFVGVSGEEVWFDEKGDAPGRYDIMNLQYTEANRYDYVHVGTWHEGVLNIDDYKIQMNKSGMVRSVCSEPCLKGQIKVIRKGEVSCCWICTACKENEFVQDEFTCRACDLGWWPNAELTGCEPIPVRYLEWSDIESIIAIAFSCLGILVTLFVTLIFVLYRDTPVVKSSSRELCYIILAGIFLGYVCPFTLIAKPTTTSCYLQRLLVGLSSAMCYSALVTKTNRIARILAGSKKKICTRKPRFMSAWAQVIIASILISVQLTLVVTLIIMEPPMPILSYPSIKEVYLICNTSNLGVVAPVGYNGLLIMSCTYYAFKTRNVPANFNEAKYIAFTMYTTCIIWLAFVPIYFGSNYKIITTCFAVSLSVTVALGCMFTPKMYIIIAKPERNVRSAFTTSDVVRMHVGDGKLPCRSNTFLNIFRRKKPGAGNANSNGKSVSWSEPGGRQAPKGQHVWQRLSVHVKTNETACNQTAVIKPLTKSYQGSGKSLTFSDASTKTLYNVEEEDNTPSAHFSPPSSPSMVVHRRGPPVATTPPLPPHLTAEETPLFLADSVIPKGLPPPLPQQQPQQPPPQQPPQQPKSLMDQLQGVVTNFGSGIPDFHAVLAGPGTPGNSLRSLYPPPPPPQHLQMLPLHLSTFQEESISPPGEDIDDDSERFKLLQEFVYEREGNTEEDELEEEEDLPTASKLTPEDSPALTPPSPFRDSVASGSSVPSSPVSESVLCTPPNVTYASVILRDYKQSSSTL
UniProt Q14289: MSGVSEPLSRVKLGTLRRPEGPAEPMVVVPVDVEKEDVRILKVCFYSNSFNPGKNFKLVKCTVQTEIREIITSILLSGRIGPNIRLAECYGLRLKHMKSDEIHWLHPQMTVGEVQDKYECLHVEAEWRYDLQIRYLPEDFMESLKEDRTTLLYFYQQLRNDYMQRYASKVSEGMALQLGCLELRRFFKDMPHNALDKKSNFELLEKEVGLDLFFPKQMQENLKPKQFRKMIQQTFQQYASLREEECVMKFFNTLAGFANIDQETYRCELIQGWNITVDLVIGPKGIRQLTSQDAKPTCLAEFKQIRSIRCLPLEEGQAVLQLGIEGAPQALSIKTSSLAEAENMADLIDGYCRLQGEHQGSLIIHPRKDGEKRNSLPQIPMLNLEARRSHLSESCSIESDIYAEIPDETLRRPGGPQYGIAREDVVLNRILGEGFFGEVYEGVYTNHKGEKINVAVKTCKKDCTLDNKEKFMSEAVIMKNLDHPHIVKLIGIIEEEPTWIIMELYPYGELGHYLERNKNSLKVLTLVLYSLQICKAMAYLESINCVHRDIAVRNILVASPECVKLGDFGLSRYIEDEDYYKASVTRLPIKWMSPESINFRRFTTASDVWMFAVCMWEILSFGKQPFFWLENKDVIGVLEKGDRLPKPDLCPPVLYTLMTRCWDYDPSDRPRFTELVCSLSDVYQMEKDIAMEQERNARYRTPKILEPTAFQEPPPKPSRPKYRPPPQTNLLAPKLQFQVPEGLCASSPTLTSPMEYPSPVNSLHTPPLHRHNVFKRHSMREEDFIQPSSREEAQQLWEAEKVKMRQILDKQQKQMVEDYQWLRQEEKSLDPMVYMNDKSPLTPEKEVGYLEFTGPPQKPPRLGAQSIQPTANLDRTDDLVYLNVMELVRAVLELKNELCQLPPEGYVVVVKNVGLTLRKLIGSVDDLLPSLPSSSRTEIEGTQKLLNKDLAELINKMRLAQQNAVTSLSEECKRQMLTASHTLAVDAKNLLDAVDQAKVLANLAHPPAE

Biological target: FLAG-mGluR1a-866Δ (UniProt P23385)
Test: co-IP; HEK293 cells transiently transfected; 500-1000 ug lysate protein; lysis buffer 25 mM HEPES pH 7.5, 300 mM NaCl, 1.5 mM MgCl2, 0.2 mM EDTA, 0.1% Triton X-100; FLAG-tagged mGluR1 immunoprecipitated with FLAG Sepharose beads overnight at 4 C; cells untreated or treated with 30 uM quisqualate (0-30 min); GDP-AlF4- treatment in Fig. 4C

binding: binds
Substance: HA-Pyk2 (proline-rich tyrosine kinase 2), expressed in HEK293 cells (from UniProt Q14289 1-1009) (enzyme)
